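Methionyl-tRNA synthetase (putative), Leishmania donovani (UniProt E9BF75). Primary screen of methionyl-tRNA synthetase; the read-out is not stated. The test concentration is not given. The values are filed as inhibition. About 68,000 compounds were tested under these conditions; 0.035% (about 24) showed 50% or more at least once.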

The chains behind the UniProt entries cited, without tags or fusion partners.
UniProt E9BF75, entry or part of it: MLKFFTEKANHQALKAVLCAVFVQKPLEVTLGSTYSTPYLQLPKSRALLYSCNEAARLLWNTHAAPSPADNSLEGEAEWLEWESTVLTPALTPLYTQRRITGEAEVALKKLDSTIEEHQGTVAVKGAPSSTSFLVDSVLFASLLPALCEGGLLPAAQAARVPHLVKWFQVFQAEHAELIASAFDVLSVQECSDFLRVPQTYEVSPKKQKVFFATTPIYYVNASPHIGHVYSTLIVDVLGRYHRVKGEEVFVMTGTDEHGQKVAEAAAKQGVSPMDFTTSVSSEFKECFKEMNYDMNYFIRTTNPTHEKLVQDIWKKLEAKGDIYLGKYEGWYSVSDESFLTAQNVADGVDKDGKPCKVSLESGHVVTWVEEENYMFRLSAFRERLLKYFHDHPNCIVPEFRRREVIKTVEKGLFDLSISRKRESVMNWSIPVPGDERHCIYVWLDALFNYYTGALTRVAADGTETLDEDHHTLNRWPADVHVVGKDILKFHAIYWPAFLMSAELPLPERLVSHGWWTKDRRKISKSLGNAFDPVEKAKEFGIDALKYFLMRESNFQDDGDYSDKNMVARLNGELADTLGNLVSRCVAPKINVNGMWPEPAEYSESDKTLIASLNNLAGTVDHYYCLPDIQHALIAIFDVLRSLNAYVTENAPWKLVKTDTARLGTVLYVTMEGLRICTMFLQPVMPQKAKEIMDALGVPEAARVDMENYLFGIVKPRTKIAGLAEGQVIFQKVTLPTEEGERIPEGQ

All values are in %.
The controls that fix the scale are not given in the record; negative values are as filed.
The compounds are a random part of those screened.

SMILES: COc1ccc(NC(=O)N2CCC3(CC2)NC(=O)CC3C(=O)O)cc1Cl (centres unmarked)
Inhibition: 4.545

SMILES: CS(=O)(=O)N1CCN(C(=O)c2cc(-c3ccc(Br)s3)n[nH]2)CC1
Inhibition: 11.26

SMILES: O=C(Cc1ccc(F)cc1)N1CCCC(c2n[nH]c3nccnc23)C1 (centres unmarked)
Inhibition: 9.375

SMILES: O=C1[C@H]2CN(Cc3ccco3)C[C@H]2CN1c1cncnc1
Inhibition: 11.83

SMILES: Cc1nccc(-c2ccccc2)c1C(=O)N1CCC2(CCCO2)CC1
Inhibition: 7.796

SMILES: Cc1cc(N2CCCN(C(=O)Cc3cc(F)cc(F)c3)CC2)ccn1
Inhibition: 15.27

SMILES: Cn1cnc2c1C(COCc1cccnc1)N(Cc1ccccc1)CC2 (centres unmarked)
Inhibition: 17.26

SMILES: Cc1nnc(CN2CCCCC2c2nc(-c3ccccc3)no2)s1 (centres unmarked)
Inhibition: 8.447

SMILES: CN(CC1CCCCO1)c1ncnc2cc(F)ccc12 (centres unmarked)
Inhibition: 11.04

SMILES: O=C(NC1CC(=O)N(C2Cc3ccccc3C2)C1)c1cc[n+]([O-])cc1 (centres unmarked)
Inhibition: 3.896

SMILES: COCCO[C@H]1CCN(C(=O)c2ccno2)[C@H]1Cc1cnn(C)c1
Inhibition: 10.48

SMILES: CNc1nc(N2CCC3(CCCNC3=O)C2)nc2c1CCC2 (centres unmarked)
Inhibition: -1.882

SMILES: COc1ccc(OC)c(-c2cc(C(=O)NCC3(CO)CC3)n(C)n2)c1
Inhibition: 10.45

SMILES: O=C(c1ccccc1)N1CC2(CCNC2)OCc2ccccc21 (centres unmarked)
Inhibition: 13.71

SMILES: Cc1ccc(NC2(C(=O)NCCCN)CCCC2)cc1
Inhibition: 8.052

SMILES: O=c1c(CN2CCOCC2)coc2ccc(Cl)cc12
Inhibition: 13.6

SMILES: COc1ccnc(N2CCN(C(=O)c3csnn3)CC2)n1
Inhibition: 8.541

SMILES: FC(F)(F)c1ccc(-c2cnc(C3CCCN3)cn2)cc1 (centres unmarked)
Inhibition: 10.87

SMILES: Cc1cc(C(=O)N2CCCC(c3ccc(C(=O)O)cc3)C2)c(C)o1 (centres unmarked)
Inhibition: 14.24

SMILES: CN1CC[C@H]2OCC[C@@]2(C(=O)NCCc2ccccn2)C1
Inhibition: 4.482

SMILES: CCOc1cc(C(=O)N2CC=C(c3ccc(O)cc3)CC2)ccn1
Inhibition: 12.47

SMILES: Cc1ccc(CN2CC[C@H]3[C@H]2CC(=O)N3c2ccsc2)o1
Inhibition: 1.571

SMILES: CCC(=O)N1CCCCC1c1nc(CN(C)C(C)=O)cc(N(C)C)n1 (centres unmarked)
Inhibition: 19.81

SMILES: c1ccc(-c2nnc3n2CCN(Cc2ccc4c(c2)OCCO4)C3)cc1
Inhibition: 8.571

SMILES: O=C(Nc1ccc(Br)cc1F)c1ccc(N2CCCCC2)nn1
Inhibition: -0.8475

SMILES: c1cnc(N2CCC3(CCN(CC4CCCC4)CC3)C2)nc1
Inhibition: 6.875

SMILES: CN(C)C(=O)CN1CCC2(CCN(C(=O)N3CCCC3)CC2)C1=O
Inhibition: 8.403

SMILES: Cc1cccc(N2CCN(C(=O)CCc3c(C)noc3Cl)CC2)c1
Inhibition: 10.86

SMILES: Cc1nn(C)cc1S(=O)(=O)NCC(C)Cn1cc(Cl)cn1 (centres unmarked)
Inhibition: 1.983

SMILES: O=S(=O)(NC1CCCCC12OCCO2)c1ccc2c(c1)OCCO2 (centres unmarked)
Inhibition: 16.55

SMILES: CCc1c(C)sc2c1c(N)nc(=O)n2CCN1CCOCC1
Inhibition: 9.84

SMILES: Cc1c(NC(=O)N(C)CCO)cccc1OC1CCCC1
Inhibition: 15.92

SMILES: CS(=O)(=O)c1ccc(C(=O)N2CCCC(n3ccnc3)C2)cc1 (centres unmarked)
Inhibition: 10.56

SMILES: COc1c(C2CCCN2Cc2nnc(C3CC3)o2)c(C)nn1C (centres unmarked)
Inhibition: 8.059

SMILES: CNC(=O)c1cc(C)n(-c2cccc(OC)c2)c1C
Inhibition: 10.99

Once more, the final 3:

SMILES,Inhibition
CS(=O)(=O)c1ccc(C(=O)N2CCCC(n3ccnc3)C2)cc1 (centres unmarked),10.56
COc1c(C2CCCN2Cc2nnc(C3CC3)o2)c(C)nn1C (centres unmarked),8.059
CNC(=O)c1cc(C)n(-c2cccc(OC)c2)c1C,10.99

Measurements from “University of Dundee, Small-Polar-MMV Screening Library” (2021), ChEMBL document CHEMBL3988442.